Assay results reported in patent US20240182513A1, “SEPARATION OF METAL IONS FROM A SAMPLE USING GLYCOLIPIDS” (ARIZONA BOARD OF REGENTS ON BEHALF OF THE UNIVERSITY OF …, priority 2021, published 2024).

Test: Example 2.2 glycolipid facilitated chemical precipitation: lanthanum
Conditions: La^3+-xylolipid reactions, no further treatment
Method: Nine different structural variants were selected to examine the effect of the headgroup and number and length of the hydrophobic tail(s) on glycolipids as a chemical precipitant (Table 6). These solutions were made in advance and stored at 4° C. for up to one month and brought to room temperature (˜25° C.) before each experiment.
Each metal (Pb^2+, La^3+, and Mg^2+) was evaluated separately with each of the nine glycolipids. […] The reactions were mixed in the order of nanopure water (≥18 MΩ-cm), glycolipid solution, then metal solution. The metal and glycolipid solutions were continuously stirred as they were aliquoted into the reaction tubes. All experiments were performed in triplicate.
The reaction tubes were rotated overnight (16 to 24 h) and then three samples were collected from each tube to measure metal removal from solution: (1) no further treatment; (2) an additional filtration step; and (3) an additional centrifugation step. Briefly, for the glycolipid adsorption treatment samples all tubes were vortexed for approximately 5 sec immediately before sampling to ensure that non-adsorbed glycolipid-metal complexes were mixed into the solution column. After mixing, 0.1 ml of the reaction solution was aliquoted into a dilution tube of 2% trace metal grade nitric acid for analysis. […]
Samples for the filtration treatment were vortexed for 5 sec, then a 0.6 ml aliquot was collected with a 1 ml syringe. […] Following collection, the metal content in all samples was analyzed at the Arizona Laboratory for Emerging Contaminants (ALEC) at the University of Arizona using inductively coupled plasma mass spectrometry.
R was determined by comparing the solution metal concentration of the treatment sample (Cnt for the glycolipid with no further treatment sample, Cf for the glycolipid and filtration sample, and Cc for the glycolipid and centrifugation sample) to the solution metal concentration of a glycolipid-free control (Ci) that underwent the same handling and processing steps. […]

| Compound | visual observation of precipitation (all molar ratios) | visual observation of precipitation (2:1 ratio) | visual observation of precipitation (5:1 and 10:1 ratios) |
| --- | --- | --- | --- |
| CCCCCCCCCCCC(CC(=O)O)OC1OC[C@@H](O)[C@H](O)[C@H]1O (stereo partly drawn) [Xyl-C14] | clear solution |  |  |
| CCCCCCCCCCCC(CC(=O)O)OC(=O)CC(CCCCCCCCCCC)OC1OC[C@@H](O)[C@H](O)[C@H]1O (stereo partly drawn) [Xyl-C14-C14] |  | clear solution | precipitation on the reaction tube surfaces |
